In PMC9737020:
Results are given in words; binding and its absence hold for the method and conditions named. In cells and extracts the contact can be indirect. Some entries that bind do so weakly or less than the wild type.

Key:
[1] = target: T1, nucleosome assembly protein 1 like 1 (NAP1L1) (human (endogenous in CD34+-derived megakaryocytes)) (UniProt P55209); assay: co-IP; co-IP from lysate of CD34+-derived human megakaryocytes with anti-NAP1L1 on protein G magnetic beads; cells with or without LPS treatment
T1 sequence: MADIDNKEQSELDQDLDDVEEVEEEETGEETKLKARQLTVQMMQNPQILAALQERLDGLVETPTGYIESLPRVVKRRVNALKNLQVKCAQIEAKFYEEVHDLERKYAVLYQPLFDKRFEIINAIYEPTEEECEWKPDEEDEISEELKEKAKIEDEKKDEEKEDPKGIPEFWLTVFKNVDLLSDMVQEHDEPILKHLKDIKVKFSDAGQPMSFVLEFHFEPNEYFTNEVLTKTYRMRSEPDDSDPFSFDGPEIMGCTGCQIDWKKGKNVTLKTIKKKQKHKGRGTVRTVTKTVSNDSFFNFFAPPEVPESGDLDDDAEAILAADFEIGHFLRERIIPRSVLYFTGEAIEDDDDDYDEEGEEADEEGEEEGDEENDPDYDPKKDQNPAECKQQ

[2] = target: T2, nucleosome assembly protein 1 like 1 (NAP1L1) (human (endogenous in platelets)) (UniProt P55209); assay: co-IP; co-IP from human platelet whole-cell lysate with anti-NAP1L1 on protein G magnetic beads (4 h, 4 °C); immunoblot with anti-PDC-E2; controls: isotype IgG and beads only
T2 sequence: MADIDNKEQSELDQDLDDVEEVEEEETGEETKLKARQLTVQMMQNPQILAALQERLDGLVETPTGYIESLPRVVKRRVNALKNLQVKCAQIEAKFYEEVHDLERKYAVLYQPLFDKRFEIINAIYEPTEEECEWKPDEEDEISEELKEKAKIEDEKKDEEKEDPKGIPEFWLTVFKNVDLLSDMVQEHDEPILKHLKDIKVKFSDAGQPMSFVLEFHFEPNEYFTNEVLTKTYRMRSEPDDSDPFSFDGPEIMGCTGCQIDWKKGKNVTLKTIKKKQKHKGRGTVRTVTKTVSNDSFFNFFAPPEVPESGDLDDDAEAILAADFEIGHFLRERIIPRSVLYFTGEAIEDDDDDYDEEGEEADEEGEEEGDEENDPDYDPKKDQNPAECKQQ

binding [1]: binds | binding [2]: binds
B1: dihydrolipoyllysine-residue acetyltransferase component of pyruvate dehydrogenase complex (PDC-E2) (protein, UniProt P10515 87-647)
chain: SLPPHQKVPLPSLSPTMQAGTIARWEKKEGDKINEGDLIAEVETDKATVGFESLEECYMAKILVAEGTRDVPIGAIICITVGKPEDIEAFKNYTLDSSAAPTPQAAPAPTPAATASPPTPSAQAPGSSYPPHMQVLLPALSPTMTMGTVQRWEKKVGEKLSEGDLLAEIETDKATIGFEVQEEGYLAKILVPEGTRDVPLGTPLCIIVEKEADISAFADYRPTEVTDLKPQVPPPTPPPVAAVPPTPQPLAPTPSAPCPATPAGPKGRVFVSPLAKKLAVEKGIDLTQVKGTGPDGRITKKDIDSFVPSKVAPAPAAVVPPTGPGMAPVPTGVFTDIPISNIRRVIAQRLMQSKQTIPHYYLSIDVNMGEVLLVRKELNKILEGRSKISVNDFIIKASALACLKVPEANSSWMDTVIRQNHVVDVSVAVSTPAGLITPIVFNAHIKGVETIANDVVSLATKAREGKLQPHEFQGGTFTISNLGMFGIKNFSAIINPPQACILAIGASEDKLVPADNEKGFDVASMMSVTLSCDHRVVDGAVGAQWLAEFRKYLEKPITMLL
